B1: tRNA (parent)
chain: GUUCCGUUGGCGUAAUGGUAACGCGUCUCCCUCCUAAGGAGAAGACUGCGGGUUCGAGUCCCGUACGGAACG

Variants at the background level are over-represented here.

This data set covers variants of B1. Put plainly: yeast fitness relative to wild type (ratio to wild type); higher = fitter; tRNA-Arg(CCU), competitive growth, 37 C, YPD. In a few lines:
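Variants of the tRNA-Arg(CCU) gene, chemically synthesised with a 3% per-site mutation rate at 69 sites, were placed at the native genomic locus in Saccharomyces cerevisiae. The pooled strains were competed in YPD at 37°C for 24 hours in six parallel replicates. Gene amplicons from the start population and from each end population were read by 100-nucleotide paired-end sequencing. Darwinian fitness relative to wild type came from changes in genotype frequencies; genotypes needed ≥ 100 starting reads, and estimates < 0.5 were set to 0.5.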
GUUCCGUUGGCGUAAUGGUAACGCGUCUGCCUGCUAAGGAGGAGACUACGGGUUCGAGUCCCGUACGGAACG [C29G C33G A42G G48A]: the yeast fitness is not above 0.5.
To GUUCGGUUGGCGUAAUGGUGACGCGUCUCCCUCCUCAGGAGGAGACUGCGGGUUCGAGUCCCGUACGGAACG [C5G A20G A36C A42G] belongs not above 0.5; to GUUCCGUUGGCGUAAUGGUAACGCGUCUCCCUCCUAAGGAGAAGACUGCGCGUACGAGUCCCGUACGGAACG [G51C U54A], not above 0.5.
To GUUCCGUUGGCGUAACGGUAACGCGUCUCCUUCCUAAGGAGAAGACUGCGGAUUCGAGUCCCGUACGGAACG [U16C C31U G52A] belongs not above 0.5; to GUUCCGUUGGCGCAAUGGUAACGCGUCUACCUCCUAAGGAGAAGACUGCGGGUUCGAGUCCCGUACGGAACG [U13C C29A], 0.618; to GUUCCGUUGGCGUAAUGGUAACGCGUCUCCCUCCUAGGGAGAAGACUGCGGGUCCGAGUCCUGUACGCAACG [A37G U54C C62U G68C], not above 0.5.
To GUUCCGUUGGCGUAAUGGUAGCGGGUCUCCCUCCUAUGGAGAAGACUGCGGGUUCGAGUCCCGUACGGAACG [A21G C24G A37U] belongs 0.573.
As to GUUCCAAUGGCGUAAUGGUAACGGGUCUCCCUCCUAAGGAGAAGACUGCGGGUUCGAGUGCCCUACGGAACG [G6A U7A C24G C60G G63C], the yeast fitness is not above 0.5.
In the case of GUUCCGUUGGCGUAAUGGUAAAGCGUCUCCCUCCUAAGGAGAAGACUGCCGGUUCGAGUCCCGUGCGGAACG [C22A G50C A65G] it was not above 0.5.
For GCUACGUUGGCGUAAUGGUAACGCGUCCCCCUCCUAAGGAGAACACUGCGGGUUCGAGUCCCGUACAGAACG [U2C C4A U28C G44C G67A], the yeast fitness was not above 0.5.
To GAUCCGUUGGCGUAAUGGUAACGCGUCUCCCUCCCAAGGACAAGACUGCGGGUUCGAGUCCCGUACGGAACG [U2A U35C G41C] belongs not above 0.5; to GUUCCGUUGGCGUAAUGGUAACCCGUCUCCCUCAUAAGGAGAAGACUGCGGGUUCGAGUCCCGUACGGAACG [G23C C34A], not above 0.5; to GUUCCGUUGGCGUACUGGUAACGCGUCUCCGUCCUAAGGAGAAGACUGCGGGUUAGAGUCCCGUACAGAACG [A15C C31G C55A G67A], not above 0.5.
In the case of GUUCCGUGGGCGUAAUGGUAACGCGUCUCCCUCCUAUGGAGAAGACUGCGGGUUCGUGUGCCGUACGCAACG [U8G A37U A57U C60G G68C] it was not above 0.5.
To GUUCCGUUGGCGUAAUGGUAACGGGUCUCCGUCCUAAGGAGAAGACUGCGGGUUCGAGUCCCGUAUGGAACG [C24G C31G C66U] belongs not above 0.5.
As to GUUAGGUUGGCGUAAUGGUAACGCGUCUCCCUCCUAAGGAGAAGACUGCGGGUUCGAGUCUCGUACGGAACG [C4A C5G C61U], the yeast fitness was not above 0.5.
For the variant GUUCCGUUGGCGUAAUGAUAACGCGUCUCCCUCCAAAGGAGAAGAGUGUGGGUUCGAGUCCCGUACGGAACG [G18A U35A C46G C49U], the yeast fitness is not above 0.5.
In the case of GUUCCGUUGGCGUAAUCGUAACGCGUCUCCCUCCUAAGGAGAAGACUGCGGGUUCGAGUGCGGUACGCAACG [G17C C60G C62G G68C] it was not above 0.5; in that of GCUCCGUUGGCGUAAUGGUAACGUGUCUCCUUCUUCAGAACAAGACUGCGGGUUCGAGUCCCGUACGGAACG [U2C C24U C31U C34U A36C G39A G41C], not above 0.5.
On to GUUCCGUGGGCGUAAUGGUAACGCGUCAGCCUCCUAAGGAGAAGACUGCGAGUUCAAGUCCCGUACCGAACG [U8G U28A C29G G51A G56A G67C], for which the yeast fitness is not above 0.5.
On to GUUCCGUUGGCGUAAUGGUAACGCGUCUCCCUCCUAAGGAGAAAACUGCGGGUUAGACUCCCGUACGGAACG [G44A C55A G58C], for which the yeast fitness is not above 0.5.
Consider GUUCCGUUGGGGUAAUGGUAAGGCGUGUCCCUCCUAAGGAGAAGACUGCGGGUUCGAGUCCUGUACGGAACG [C11G C22G C27G C62U], for which the yeast fitness was found to be 0.578.
To GUUCCGUUAGCGUAAUGGUAACGCGUCUCCCUCCUAAGGAGAAGACUGAGGGUUCGUGUCCCGUACGGAACG [G9A C49A A57U] belongs not above 0.5; to GUUCGGUUGGCGUAAUGGUAACGCGUCUCCCUCAUAAGGAGAAGACUGCGGGUUCGAGUCCCGUACGAAACG [C5G C34A G68A], not above 0.5; to GUUCCGUUGGCGUAAUGGUCACGCGUCUCCCUCCUAAGGUGAAGACUGCGGGUUCGAGUCGCGUACGGAACG [A20C A40U C61G], not above 0.5.
On to GUUCCCUUGGCGUAAUGGGAACGCGUCUCCCUCCUAAGGAGAAGACUCCGGAUUCGAGUCCCGUACGGAACG [G6C U19G G48C G52A], for which the yeast fitness is not above 0.5.
In the case of GGUCCGUUGGCGUAAUGGUGAAGCGUCUCCCUCCUAAGGCGAAGAGUAUGGGUUCGAGUCCCGUACGGCACG [U2G A20G C22A A40C C46G G48A C49U A69C] it was not above 0.5; in that of GUUCCGUUGGCGUAAUCGUAACGCGUCUCCCCCCUAAGGAGUAGACUGCGGGUUCGAGUCUCGUACGGAACG [G17C U32C A42U C61U], not above 0.5.
To GUUCCGUUGGCGUAAUGGUAACGCGUCUCGCUCCUAUGGAGAAGACCGCGGGUUCGAGUACCAUACGGAACG [C30G A37U U47C C60A G63A] belongs not above 0.5; to GUUCCGUUGGCGUAGUGGUAACGCGUCUCCCUCCUUAGGAGAAGACUGAGGAUUCGAGUCCCGUACGGAACG [A15G A36U C49A G52A], not above 0.5; to GCUCCGUGGGCGUAAUGGUAACGCGUCUCCCGCCAAAGGAGAAGACUGCGGGUUCGAGUCCCGUACGGAACG [U2C U8G U32G U35A], not above 0.5.
In the case of GUCCCGUUGGCGUAAUGGUAACGCGUCUUCCUACUAAAGAGAAGACUGCGGGUUCGAGUCCCGUACGGAACG [U3C C29U C33A G38A] it was not above 0.5; in that of GUUCGGUUGGCGUAAUCGUAACGCGUCUUCCUCCUAAGGAGAAGACUGCGGGUUCGAGUCCCGUACGGAACG [C5G G17C C29U], not above 0.5.
Take GUUCCGCUGGCGUAAUGGUAACGCGUCUCCCUCCUAAGGUGUAGACUGCGGGUACGAGUCACGUACGGAACG [U7C A40U A42U U54A C61A]: the yeast fitness is not above 0.5.
With GUUCCGUUGGCGUAAUGGUAACGCGUUUCCCUCCUAAGGAGAACACUGCGGGUUCGACUCCCCUACGGAACG [C27U G44C G58C G63C], the yeast fitness was not above 0.5.
In the case of GUUCCGUUGGCGUAAUGGUACCGCGUCUCCCUUCUAAGGAGAAGACUGCGGGUUCGAGUCACGUACGCAACG [A21C C33U C61A G68C] it was not above 0.5; in that of GUUCCGUUGGCGUAAUGGUAACGCCUCUCCCUGCUAAGGAGAACACUGCGGGUUCGAGUCCCGUACGGAACG [G25C C33G G44C], not above 0.5.

Source of the values: the RNAGym collection of RNA variant scans (doi:10.1126/science.aae0568).
